Results taken from article PMC4906169.
Results are given in words; binding and its absence hold for the method and conditions named. Binding seen in cells or lysates may run through a third protein. Where a sequence is shown, tags or fusion partners need not be part of it.

Biological target: T1, Cellulose synthase CesA3, BiFC fusion (Arabidopsis thaliana) (UniProt Q941L0)
T1 sequence: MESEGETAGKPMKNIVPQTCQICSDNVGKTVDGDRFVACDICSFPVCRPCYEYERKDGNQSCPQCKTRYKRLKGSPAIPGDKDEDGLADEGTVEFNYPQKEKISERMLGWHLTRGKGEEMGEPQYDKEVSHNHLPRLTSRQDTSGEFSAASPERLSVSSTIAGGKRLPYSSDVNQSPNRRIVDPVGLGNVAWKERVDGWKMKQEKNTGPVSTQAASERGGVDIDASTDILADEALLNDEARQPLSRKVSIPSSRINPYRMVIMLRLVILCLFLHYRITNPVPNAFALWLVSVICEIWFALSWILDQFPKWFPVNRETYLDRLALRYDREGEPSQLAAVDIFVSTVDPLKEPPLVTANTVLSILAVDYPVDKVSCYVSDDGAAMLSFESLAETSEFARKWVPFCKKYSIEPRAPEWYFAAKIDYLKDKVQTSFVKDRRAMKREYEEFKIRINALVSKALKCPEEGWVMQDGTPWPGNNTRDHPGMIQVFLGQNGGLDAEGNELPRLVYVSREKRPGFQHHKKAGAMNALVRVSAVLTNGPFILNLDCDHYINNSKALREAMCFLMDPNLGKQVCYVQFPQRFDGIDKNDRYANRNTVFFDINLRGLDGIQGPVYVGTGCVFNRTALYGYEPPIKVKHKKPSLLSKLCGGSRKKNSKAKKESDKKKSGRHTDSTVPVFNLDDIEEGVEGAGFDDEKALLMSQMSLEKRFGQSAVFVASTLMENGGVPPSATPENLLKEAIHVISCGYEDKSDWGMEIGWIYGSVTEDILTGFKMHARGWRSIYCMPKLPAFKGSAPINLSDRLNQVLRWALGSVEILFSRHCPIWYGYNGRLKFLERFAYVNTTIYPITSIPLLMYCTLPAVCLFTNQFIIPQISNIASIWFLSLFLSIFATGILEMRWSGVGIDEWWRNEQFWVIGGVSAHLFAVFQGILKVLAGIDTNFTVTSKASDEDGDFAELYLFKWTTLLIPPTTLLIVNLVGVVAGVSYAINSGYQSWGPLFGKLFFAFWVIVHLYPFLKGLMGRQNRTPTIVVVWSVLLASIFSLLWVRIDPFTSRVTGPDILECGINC
Experiment: split reporter; BiFC with Yn/Yc halves of VENUS fused to the N-termini; transient co-expression in N. benthamiana epidermal leaf cells, imaged by confocal microscopy 62 h after infiltration

binding: no binding
B1: Got1p Arabidopsis homologue, BiFC fusion (protein, UniProt Q6NMM1 1-140)
chain: MASLEMNDLKKIGLGLTGFGVFFTFLGVIFVFDKGLIAMGNILFLAGVTLTIGINPAIQFFTKRQNFKGTISFGLGFLLVVFGWPIFGLLLESYGFLVLFSGFWPTLAVFLQRIPLLGWLLQQPYIRSLLDRYRGRRVPV
